Some of the results follow.
B1: il2ra_site1_3nfp_normal_mot_eb5a5eebac1e5153f932cc6c3f4b2787_0001_af2_000000065_0001_18_33_H_._HHH_b2_01202_0001_0000300026_0000001_0 (protein)
chain: SSSSSDEEVEERVEELLEEARHVDPRRASRLLREAWRLAAEADDLELSELIYKFIRELVQSSSSS
B2: il2ra_site2_3nfp_sap_21_mot_HHH_b1_05627_af2_000000038_0001_43_56_H_._HHH_b1_06472_0001_0000400012_0000001_0_0001 (protein)
chain: SSSSDEVEELLKELKKLAEEGDEEEFRKVLRRIAQLIAELNDPELFAEAAQILYLFAKNQVSSSS
B3: il2ra_site1_3nfp_sap_10_mot_136a1b26558f6d63e39c8b7f62c9aa34_0001_af2_000000044_0001_17_31_H_._HHH_b2_00046_0001_0000400030_0000001_0_0001 (protein)
chain: SSSSDEEVEEEVEELLEKAKRVEDPHEAAKILHKAYRLAAELGNQELADLVYEVMHRVIKGSSSS
B4: il2ra_site2_3nfp_sap_8_mot_HHH_b2_00729_000000274_0001_42_55_H_._HHH_b1_06486_af2_0001_0000400017_0000001_0_0001 (protein)
chain: SSSSTREELKEMIELALESLESRGDEEAVERVEKLLEEFEKTGDPRIALEVYEIAREAYKSSSSS
B5: il2ra_site1_1z92_sap_21_mot_HHH_b2_02761_000000226_0001_1_18_H_._HHH_b2_05214_af2_0001_0000300031_0000001_0_0001_af2pred_0001_af2pred (protein)
chain: SAAVRDFEHSLKAGIPPEDILKAIRDALKLHGDPEAERVLQIIEELLERGVPPEEIVEILKELFK
B6: il2ra_site2_3nfp_sap_22_mot_HHH_b1_03612_af2_000000124_0001_42_57_H_._5a8f583829a5aa8bf6f84962c228dfd5_0001_af2_0001_0000100004_0000001_0_0001 (protein)
chain: SSSSNEQTEALQLALHALKLALELGDEEAAERLSRLAWELMREGDPELAEELEKLAEEVLSSSSS
B7: il2ra_site2_3nfp_normal_mot_HHH_b2_01155_000000159_0001_38_52_H_._HHH_b1_00283_af2_0001_0000200020_0000001_1 (protein)
chain: SSSSDEEARELAEEAEELAKQGDEEEVRELLARAVHIAYEKNDPELFAFVAEVAFKLWELRSSSS
B8: il2ra_site1_1z92_normal_mot_01209686ea234b34325f918445e6eade_0001_af2_000000154_0001_18_33_H_._HHH_b1_01160_af2_0001_0000100015_0000001_0_af2pred_0001_af2pred_1 … (protein)
chain: SSSNEAEKQLELSAEKALEAGYSPKSIRLALRRAVELLVREFNLSEEEREKLEQLAEELAEGSSS
B9: il2ra_site2_3nfp_sap_24_mot_HHH_b1_01193_af2_000000053_0001_43_57_H_._HHH_b1_07165_0001_0000200006_0000001_0_0001 (protein)
chain: SSSSSDKAEEYIKAALELLREATDPEVRKEHEEVIRAAIESRNNEELRELLEEIEEKLHSSSSSS
B10: il2ra_site2_2erj_normal_mot_b21041926606bcd66a54c4cea8303fc2_0001_1_af2_000000031_0001_15_29_H_._HHH_b2_06190_0001_0000100002_0000001_0_af2pred_0001_1_af2pred_s … (protein)
chain: SSSSNAEERIKELSREALKLDRNGNPEEARELLEEALRLAQENDSPAARKTIEQNLRLLGSSSSS
B11: il2ra_site1_2b5i_sap_17_mot_HHH_b2_04291_000000093_0001_19_37_H_._HHH_b2_03534_af2_0001_0000100005_0000001_0_0001_af2pred_dldesign_0_af2pred (protein)
chain: SSSSSLDEKYARYLKKHVEKAIENKDKDLAYQLLENAAELAARTNDAELAALVERLKKIISSSSS
B12: il2ra_site1_1z92_sap_18_mot_HHH_b1_05862_af2_000000270_0001_22_38_H_._HHH_b2_05565_0001_0000300026_0000001_0_0001 (protein)
chain: SAEEAREIVHELLPPETREAFEKDLERTERFMGDPKNALFALINVLIQMFGDPRLEEAREIVRED
B13: il2ra_site1_2b5i_normal_mot_HHH_b2_04618_af2_000000067_0001_43_56_H_._HHH_b1_03627_af2_0001_0000200008_0000001_0_af2pred_dldesign_0_af2pred (protein)
chain: SSSSNRFLERVLAQLREELEEAKKENDKELLQKLKEQTKKLYERTKDPRLKELLEEIEKLLSSSS
B14: il2ra_site1_1z92_normal_mot_01209686ea234b34325f918445e6eade_0001_af2_000000154_0001_18_33_H_._HHH_b1_02824_0001_0000300044_0000001_0_af2pred_0001_af2pred (protein)
chain: SSSSDLEERAQEIVEELVRRFGLSEEEKRALEYAAEAAVRAGFSEKSIRLALEALVELLNSSSSS
B15: il2ra_site2_2erj_sap_12_mot_0ec3dbe5a60479548ca220575d6efbeb_0001_000000280_0001_35_49_H_._HHH_b1_04602_0001_0000300004_0000001_0_0001 (protein)
chain: SSSSDAEEEAEELYELVKEAVERGDVELASELLRLLLELAHEYRNEEVHRLAWEALRLNGSSSSS
B16: il2ra_site1_1z92_sap_25_mot_HEEHE_1462_000000005_0001_40_55_H_._9b27c49f4244f023ba89377d59a42b61_0001_0001_0000100008_0000001_0_0001 (protein)
chain: SSSSSREEKSAEWAIRLIESALRLNNEELLKLALRQLEMLVERIGDPELEQRLEELEELLSSSSS
B17: il2ra_site1_1z92_normal_mot_HHH_b2_06073_af2_000000110_0001_43_57_H_._HHH_b2_05950_0001_0000300036_0000001_0 (protein)
chain: SSSSSDVFELVDELFQRAARSKDQEERRELLEEAFEIAEKGNDERLLKEIERYLRMLEGSSSSSS
B18: il2ra_site2_2erj_sap_23_mot_6c2800a769814540b5b47941e710ff28_0001_000000197_0001_35_49_H_._HHH_b2_04229_0001_0000100001_0000001_0_0001 (protein)
chain: SSSSSEEYERVAELLARLIELLANGNPEEAEELAEELLRFVEELNDPLLRRFVEDALKAIKSSSS
B19: il2ra_site1_3nfp_normal_mot_HHH_b2_01582_af2_000000000_0001_1_16_H_._92a3150cbef6ae0ea5404c1e8ea5100d_0001_1_0001_0000100001_0000001_0 (protein)
chain: SLKVLKQAARFLGDPEVLEAVEVLEELKKDPRHREEVYELIERLLRLLAKDPEEARKLAEEILEK
B20: il2ra_site1_1z92_sap_15_mot_9053287a88fd35e5e7b7820c009b1930_0001_000000002_0001_34_47_H_._a237db91e5dae9a764afea8a79d812a9_0001_0001_0000100014_0000001_0_0001 (protein)
chain: SEEEELEEELEKAGVPPETIEAILRDLKRAEKLTGDPEWAAKAVAMVLRKWGDPEAARIVEEFIK
B21: il2ra_site1_2b5i_normal_mot_HHH_b2_00256_000000050_0001_19_35_H_._HHH_b2_00953_af2_0001_0000100007_0000001_0_af2pred_0001_af2pred (protein)
chain: SSSSSNEARYLIRVIFELFHRLGLSAEQAKELARLAAELLDRGVSEEEAEELLQELAKELSSSSS
B22: il2ra_site1_1z92_sap_19_mot_6c2800a769814540b5b47941e710ff28_0001_af2_000000005_0001_35_49_H_._HHH_b1_00427_0001_0000300019_0000001_0_0001_af2pred_0001_af2pred_ … (protein)
chain: SSSSDEEEELARRIVERLVEEYNLDEETRRALERDAENALKRGYSEHSIRRALENLARLMSSSSS
B23: il2ra_site2_3nfp_normal_mot_HHH_b1_05785_af2_000000002_0001_41_57_H_._HHH_b2_01971_0001_0000200009_0000001_0 (protein)
chain: SSSSSDEERLLELFLESLRQAREEGDEELAHDSVRYAIAAARLLNDEETLKELEEILKELSSSSS
B24: il2ra_site2_2erj_sap_12_mot_HHH_b1_00853_af2_000000249_0001_20_37_H_._HHH_b2_06246_af2_0001_0000300005_0000001_0_0001 (protein)
chain: SSSSSDDLEEAYELAVRLLRLLANRDPEEFEEVSRQLRELAERLQSDNLKEIIELMERQFSSSSS

Molecular target: il2ra, P01589
Experiment: yeast display titration

Apparent Kd, inactive:
B1 no binding seen
B2 no binding seen
B3 no binding seen
B4 no binding seen
B5 no binding seen
B6 no binding seen
B7 no binding seen
B8 no binding seen
B9 no binding seen
B10 no binding seen
B11 no binding seen
B12 no binding seen
B13 no binding seen
B14 no binding seen
B15 no binding seen
B16 no binding seen
B17 no binding seen
B18 no binding seen
B19 no binding seen
B20 no binding seen
B21 no binding seen
B22 no binding seen
B23 no binding seen
B24 no binding seen

Quoted at random: 2 entries already listed.
Apparent Kd, inactive:
B6 no binding seen
B21 no binding seen

From publication PMC10163288
